Measurements as given in the supplement of paper PMC3334620.
The full ranking holds about 33,000 sequences; the median of “E-score (-0.5 to 0.5)” is about -8e-05, and the highest 2% start at about 0.23. The list shows a part of the results.

What follows are sequences tested against T1, Nrg2 (UniProt P38082) (assay: PBM E-score (8-mer binding enrichment) (E-score (-0.5 to 0.5)); higher = stronger / more preferred TF binding). Settings: protein concentration: 100 nM; construct: GST-full length.
T1 sequence: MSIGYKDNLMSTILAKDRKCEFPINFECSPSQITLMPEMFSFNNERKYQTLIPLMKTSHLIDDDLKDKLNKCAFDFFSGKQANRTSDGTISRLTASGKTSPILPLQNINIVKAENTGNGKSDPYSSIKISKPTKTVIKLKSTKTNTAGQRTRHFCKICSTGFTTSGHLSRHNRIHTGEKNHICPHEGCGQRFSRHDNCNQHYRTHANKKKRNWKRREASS
Procedure, shortened: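 Each ungapped eight-base word and its reverse complement, pooled, received an E-score from the Universal PBM Analysis Suite. Underlying scans, normalised with masliner, recorded fluorescent anti-GST bound to GST-tagged yeast transcription factors. These were applied at about 100-200 nM to universal all-10-mer Agilent arrays double-stranded by primer extension.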

Sequence	PBM E-score
ATTGTTTC	0.256
TCCCGTAA	-0.118
CGACGCAG	-0.0381
GCTGAAGA	-0.0685
AACTGCAC	0.0736
AACAGCTG	-0.0209
AGAGAAAG	-0.00961
CAATCCGG	0.0792
ATTGCTCA	-0.0712
CAGCTACC	-0.169
AGATTGTG	0.0755
ATTTGCTC	0.156
CAGCGGAC	-0.0158
AAGACAAA	0.102
ATACCTCA	-0.0226
ATTACAAC	0.0506
CACTAAAG	0.0777
CTTTGATC	0.0357
TAAAGGTA	-0.086
CTGGATTC	0.0298
CAGCCCTG	-0.23
ACTTCCTC	-0.07
GCTCCCAC	-0.0607
CAAACTAC	0.00441
AGCTGCCA	-0.061

Sequence	PBM E-score
CGTTCCGC	-0.00432
CCAGATCG	-0.089
CCCACTTA	0.122
CGCAACAG	0.101
ACATAGAA	0.157
ATTTTCAA	0.0248
AAGTCGGC	-0.0424
AATTTACG	0.159
ACCAGTCG	-0.149
ATCGTGTC	0.00655
CAGAGAAA	0.138
GCTCACAC	-0.0643
AGGCGAAT	0.0758
GGTACGAA	0.11
ATGCTGGG	-0.0566
GAGATGCA	0.0438
CGCTTGAA	0.263
ATACATGG	0.108
CAATCCCA	0.0276
ATTAATGA	0.235
ACGTGAGG	-0.00632
ATCAGAGG	-0.112
AAACAATC	0.0887
AGGGGCGC	0.15
AAACTTTC	0.0328

Sequence	PBM E-score
AAGGAGCC	-0.118
ACTTATAT	0.227
ATCTTTAA	0.0308
ACAGGCGT	-0.0962
CTTTGATA	0.0462
AGGAGGAG	-0.267
CGGTGTTC	-0.0806
AAAGCCCC	-0.053
CTTGTCTC	-0.00155
CAAGATTA	0.029
CAAAAGAA	0.218
CTCTGTGC	-0.0288
CCATGCTC	-0.297
CAAAGCAG	0.0557
CACGAGAA	-0.0551
CCATCGGA	-0.097
CTCGTGAA	-0.0827
GCGGTTAA	-0.0634
GACCTAGC	-0.0292
GTGAACGA	-0.00481
GCTTTTAC	-0.16
CCGGCACA	-0.0589
ATATAAAA	0.0793
AGAGGCCG	-0.303
ACGGTTTA	-0.141

Given as comma-separated lines: entries from further up
Sequence,PBM E-score
CAAGATTA,0.029
CAAAAGAA,0.218
CTCTGTGC,-0.0288
CCATGCTC,-0.297
CAAAGCAG,0.0557

(listing goes on)

Sequence	PBM E-score
ACTTATCT	0.0669
ATTGATGC	0.123
CGATCGAG	0.0448
GCATAACA	0.0928
GCATGGAC	0.0746
CTGAATCA	0.0531
CAGACCGG	-0.11
CGAGACAC	-0.0459
AGGCCAAC	-0.196
GTTGTTTA	0.118
ATCTTGGA	-0.0153
ACTCTAGA	-0.0152
CATGCCCA	-0.262
ACGAAAGG	0.0599
CCCTAATC	0.0708
ACACTCAT	0.0544
ACGAAGTC	0.0773
GCGGCCGC	-0.153
AGCGTGTG	-0.0364
CAACGACG	-0.0457
ATAAACGA	0.151
CGCATGCG	0.0387
ACGGTCGA	-0.06
CGTGGACA	-0.0634
AACCGTTG	0.0901

Sequence	PBM E-score
ACAGGGCC	0.295
CTACAGCC	-0.132
CTAGGAAC	-0.0227
AAAACTGC	-0.102
CTGAATGA	0.188
AAAGCCGT	-0.124
ATCTTTTA	0.0288
GCACGGGC	-0.0455
ACGCGTCT	0.0389
GACGTCAA	0.0666
AGCCCCTG	0.0357
ATAGAAGG	-0.0977
AACCCTAA	0.123
GCAAGTGC	-0.141
CTGCGCTC	-0.146
AGTGCCCG	0.114
AACGTAAA	0.128
ATAGGTCC	0.172
ATGATGTG	0.0984
CGTCAGAC	0.0774
AGATTTTC	0.0765
CACGGCAG	0.0482
AACGGCGC	-0.0257
CGTCCGAA	-0.0969
GTCTTTTA	-0.195

Sequence	PBM E-score
CTGCCATC	0.0751
AAGTGGTC	0.0333
GAGGTACC	0.0253
ACCCGCTA	0.0219
CGACACCC	0.072
ATTCTGTA	-0.0512
AGAAGTAA	0.152
AAATTATG	0.106
CATGTCCC	-0.0199
CGCATCTA	0.146
CCGTTAAG	-0.0885
TGCAATAA	0.207
GATCAGCC	-0.275
ATTGACGG	-0.00219
CGGTAGAA	-0.275
AACGTGAC	-0.0263
CGGATTGA	0.156
AGTTTGGG	0.0374
AGCGGATC	0.0826
AGCAAAAC	0.0481
AATGATGC	0.044
AATCAGTG	0.0261
ACCACCAG	0.0201
GCCCTTAC	-0.147
CTATAAGA	-0.0182

Sequence	PBM E-score
GCGGGCAC	-0.0529
ACTCGAGA	0.0451
CAGGGGCC	0.191
TCCGTCGA	0.123
GTCATCGA	-0.028
CTCCTCAG	-0.192
CTTCCAGC	-0.285
TCGAAACA	0.232
GGCGCGCA	0.168
ATGCTTTA	-0.178
TCCTGCGA	0.0145
CGGAGGTA	-0.103
AGCTTTTC	-0.141
AGAGGTCG	-0.00188
CTCGAGTA	0.172
AGGTTACG	-0.0385
CTTGTAAC	-0.0137
ACATTAGT	0.0206
GTAAGCAA	0.0284
CCGCAGTA	-0.0214
AATACTTA	-0.0116
TACGAGGA	-0.094

In another format: entries from further up.
Sequence,PBM E-score
TAAAGGTA,-0.086
AATTTACG,0.159
ACTCTAGA,-0.0152
CTATAAGA,-0.0182
